Assay results taken from US9517222B2, “Method for the treatment of senile dementia of the Alzheimer's type” (Phenomenome Discoveries Inc., priority 2007, dated 2016).
A unit is not stated for every read-out.

Experiments:
[1] = Serum ethanolamine phospholipid ratios to PtdEt 16:0/18:0 (M01) in human cohorts; settings: for Ratio of M19 to M01 serum ratio between cohorts: males and females combined
[2] = Serum ethanolamine phospholipid levels in human cohorts (dementia severity, post-mortem pathology, age) by flow-injection MS/MS
[3] = serum, females, post mortem SDAT
[4] = serum, females, post mortem control

CC/C=C\C/C=C\C/C=C\C/C=C\C/C=C\C/C=C\CCC(=O)OC(CO/C=C\CCCCCCCCCCCCCC)COP(=O)(O)OCCN (centres unmarked) [Metabolite M19, Plasmenyl 16:0/22:6]
Ratio of M19 to M01 serum ratio between cohorts ([1]; 60-69 to 50-59): 0.75 | Ratio of M19 to M01 serum ratio between cohorts ([1]; 70-95 to 50-59): 0.95 | Ratio of M19 to M01 serum ratio between cohorts ([1]; 70-95 to 60-69): 1.26 | Ratio of ethanolamine phospholipid ratios to M01 between cohorts ([1]; AD, All to CN, Male): 0.601 | Ratio of ethanolamine phospholipid ratios to M01 between cohorts ([1]; ADAS 5-19 to CN, Male): 0.672 | Ratio of M19 to M01 serum ratio between cohorts ([1]; ADAS 5-19 to CN): 0.74 | Ratio of M19 to M01 serum ratio between cohorts ([1]; ADAS 20-39 to ADAS 5-19): 0.90 | Ratio of ethanolamine phospholipid ratios to M01 between cohorts ([1]; ADAS 20-39 to CN, Male): 0.599 | Ratio of M19 to M01 serum ratio between cohorts ([1]; ADAS 20-39 to CN): 0.66 | Ratio of M19 to M01 serum ratio between cohorts ([1]; ADAS 40-70 to ADAS 5-19): 0.72 | Ratio of M19 to M01 serum ratio between cohorts ([1]; ADAS 40-70 to ADAS 20-39): 0.80 | Ratio of ethanolamine phospholipid ratios to M01 between cohorts ([1]; ADAS 40-70 to CN, Male): 0.456 | Ratio of M19 to M01 serum ratio between cohorts ([1]; ADAS 40-70 to CN): 0.53 | Ratio of M19 to M01 serum ratio between cohorts ([1]; CN to 50-59): 1.07 | Ratio of M19 to M01 serum ratio between cohorts ([1]; CN to 60-69): 1.42 | Average serum ethanolamine phospholipid ratio to M01, Mean ([1]; Cognitive Normal, Male, serum): 1.103 | Ratio of M19 to M01 serum ratio between cohorts ([1]; SDAT to 50-59): 0.70 | Ratio of M19 to M01 serum ratio between cohorts ([1]; SDAT to 70-95): 0.74 | Ratio of M19 to M01 serum ratio between cohorts ([1]; SDAT to CN): 0.65 | Average serum ethanolamine phospholipid ratio to M01, Mean ([1]; SDAT, ADAS 5-19, Male, serum): 0.740 | Average serum ethanolamine phospholipid ratio to M01, Mean ([1]; SDAT, ADAS 20-39, Male, serum): 0.660 | Average serum ethanolamine phospholipid ratio to M01, Mean ([1]; SDAT, ADAS 40-70, Male, serum): 0.503 | Average serum ethanolamine phospholipid ratio to M01, Mean ([1]; SDAT_all, Male, serum): 0.663 | Ethanolamine Phospholipid Ratio to M01, Mean, Age Ctl, 30-39, Female ([1]; human serum, females aged 30-39): 1.009 | Ethanolamine Phospholipid Ratio to M01, Mean, Age Ctl, 40-49, Female ([1]; human serum, females aged 40-49): 0.902 | Ethanolamine Phospholipid Ratio to M01, Mean, Age Ctl, 50-59, Female ([1]; human serum, females aged 50-59): 0.974 | Ratio of Ethanolamine Phospholipid Ratio to M01, 50-59 vs. 40-49, Female ([1]; human serum, females aged 50-59 vs. females aged 40-49): 1.079 | Ethanolamine Phospholipid Ratio to M01, Mean, Age Ctl, 60-69, Female ([1]; human serum, females aged 60-69): 0.716 | Ratio of Ethanolamine Phospholipid Ratio to M01, 60-69 vs. 40-49, Female ([1]; human serum, females aged 60-69 vs. females aged 40-49): 0.794 | Ethanolamine Phospholipid Ratio to M01, Mean, Age Ctl, 70+_Female ([1]; human serum, females aged 70+): 0.877 | Ratio of Ethanolamine Phospholipid Ratio to M01, 70+ vs. 40-49, Female ([1]; human serum, females aged 70+ vs. females aged 40-49): 0.972 | Ratio of Ethanolamine Phospholipid Ratio to M01, 50-59 vs. 40-49, Male ([1]; human serum, males aged 50-59 vs. males aged 40-49): 1.426 | Ratio of Ethanolamine Phospholipid Ratio to M01, 60-69 vs. 40-49, Male ([1]; human serum, males aged 60-69 vs. males aged 40-49): 1.266 | Ratio of Ethanolamine Phospholipid Ratio to M01, 70+ vs. 40-49, Male ([1]; human serum, males aged 70+ vs. males aged 40-49): 1.451 | Ratio of ethanolamine phospholipid ratio to M01, ADAS 5-19 to CN, Female ([1]; serum, females, ADAS 5-19 vs cognitive normal): 0.813 | Ratio of ethanolamine phospholipid ratio to M01, ADAS 20-39 to 5-19, Female ([1]; serum, females, ADAS 20-39 vs ADAS 5-19): 0.901 | Ratio of ethanolamine phospholipid ratio to M01, ADAS 20-39 to CN, Female ([1]; serum, females, ADAS 20-39 vs cognitive normal): 0.733 | Ratio of ethanolamine phospholipid ratio to M01, ADAS 40-70 to 5-19, Female ([1]; serum, females, ADAS 40-70 vs ADAS 5-19): 0.738 | Ratio of ethanolamine phospholipid ratio to M01, ADAS 40-70 to 20-39, Female ([1]; serum, females, ADAS 40-70 vs ADAS 20-39): 0.819 | Ratio of ethanolamine phospholipid ratio to M01, ADAS 40-70 to CN, Female ([1]; serum, females, ADAS 40-70 vs cognitive normal): 0.600 | Ethanolamine phospholipid ratio to M01, Mean, SDAT, ADAS 5-19, Female ([1]; serum, females, SDAT ADAS 5-19): 0.728 | Ethanolamine phospholipid ratio to M01, Mean, SDAT, ADAS 20-39, Female ([1]; serum, females, SDAT ADAS 20-39): 0.656 | Ethanolamine phospholipid ratio to M01, Mean, SDAT, ADAS 40-70, Female ([1]; serum, females, SDAT ADAS 40-70): 0.537 | Ratio of ethanolamine phospholipid ratio to M01, AD, All to CN, Female ([1]; serum, females, all AD vs cognitive normal): 0.709 | Ethanolamine phospholipid ratio to M01, Mean, SDAT_all Female ([1]; serum, females, all SDAT): 0.634 | Ratio of ethanolamine phospholipid ratio to M01, Autopsy AD vs. Control, Female ([1]; serum, females, autopsy AD vs post mortem control): 0.853 | Ethanolamine phospholipid ratio to M01, Mean, Cognitive Normal, Female ([1]; serum, females, cognitive normal): 0.895 | Ethanolamine phospholipid ratio to M01, Mean, Post Mortem SDAT Female [1, 3]: 0.180 | Ethanolamine phospholipid ratio to M01, Mean, Post Mortem Ctl, Female [1, 4]: 0.211 | Ratio of ethanolamine phospholipid ratio to M01, ADAS 20-39 to 5-19, Male ([1]; serum, males, SDAT ADAS 20-39 vs ADAS 5-19): 0.891 | Ratio of ethanolamine phospholipid ratio to M01, ADAS 40-70 to 5-19, Male ([1]; serum, males, SDAT ADAS 40-70 vs ADAS 5-19): 0.679 | Ratio of ethanolamine phospholipid ratio to M01, ADAS 40-70 to 20-39, Male ([1]; serum, males, SDAT ADAS 40-70 vs ADAS 20-39): 0.762 | Ethanolamine phospholipid ratio to M01, Mean, Age Ctl, 30-39, Male ([1]; serum, males, age control 30-39): 0.725 | Ethanolamine phospholipid ratio to M01, Mean, Age Ctl, 40-49, Male ([1]; serum, males, age control 40-49): 0.607 | Ethanolamine phospholipid ratio to M01, Mean, Age Ctl, 50-59, Male ([1]; serum, males, age control 50-59): 0.865 | Ethanolamine phospholipid ratio to M01, Mean, Age Ctl, 60-69, Male ([1]; serum, males, age control 60-69): 0.769 | Ethanolamine phospholipid ratio to M01, Mean, Age Ctl, 70+_Male ([1]; serum, males, age control 70+): 0.881 | Ethanolamine phospholipid ratio to M01, Mean, Post Mortem SDAT Male ([1]; serum, males, post mortem SDAT): 0.164 | Ratio of ethanolamine phospholipid ratio to M01, SDAT vs Control (post mortem, males) ([1]; serum, males, post mortem SDAT vs post mortem control): 0.601 | Ethanolamine phospholipid ratio to M01, Mean, Post Mortem Ctl, Male ([1]; serum, males, post mortem control): 0.273 | Ratio of serum levels ([2]; AD, All to CN, Male): 0.611 | Ratio of serum levels ([2]; ADAS 5-19 to CN, Male): 0.688 | Ratio of serum levels ([2]; ADAS 20-39 to 5-19, Male): 0.866 | Ratio of serum levels ([2]; ADAS 20-39 to CN, Male): 0.596 | Ratio of serum levels ([2]; ADAS 40-70 to 5-19, Male): 0.642 | Ratio of serum levels ([2]; ADAS 40-70 to 20-39, Male): 0.741 | Ratio of serum levels ([2]; ADAS 40-70 to CN, Male): 0.442 | Serum level, Mean ([2]; Cognitive Normal, Female): 0.103 | Average serum level, Mean ([2]; Cognitive Normal, Male): 0.127 | Serum level, Mean ([2]; Post Mortem Ctl, Male): 0.032 | Serum level, Mean ([2]; Post Mortem SDAT Male): 0.014 | Ratio of serum levels ([2]; Post mortem SDAT vs Control, Male): 0.452 | Ratio of EtnPls 16:0/22:6 alone between cohorts ([2]; Post-Mortem SDAT to Control, males and females combined): 0.55 | Serum level, Mean ([2]; SDAT, ADAS 5-19, Female): 0.079 | Average serum level, Mean ([2]; SDAT, ADAS 5-19, Male): 0.088 | Serum level, Mean ([2]; SDAT, ADAS 20-39, Female): 0.072 | Average serum level, Mean ([2]; SDAT, ADAS 20-39, Male): 0.076 | Serum level, Mean ([2]; SDAT, ADAS 40-70, Female): 0.063 | Average serum level, Mean ([2]; SDAT, ADAS 40-70, Male): 0.056 | Serum level, Mean ([2]; SDAT_all, Female): 0.071 | Average serum level, Mean ([2]; SDAT_all, Male): 0.078 | Ratio, ADAS 5-19 to CN, Female ([2]; serum level ratio, females, ADAS 5-19 vs CN): 0.768 | Ratio, ADAS 20-39 to 5-19, Female ([2]; serum level ratio, females, ADAS 20-39 vs ADAS 5-19): 0.911 | Ratio, ADAS 20-39 to CN, Female ([2]; serum level ratio, females, ADAS 20-39 vs CN): 0.699 | Ratio, ADAS 40-70 to 5-19, Female ([2]; serum level ratio, females, ADAS 40-70 vs ADAS 5-19): 0.798 | Ratio, ADAS 40-70 to 20-39, Female ([2]; serum level ratio, females, ADAS 40-70 vs ADAS 20-39): 0.875 | Ratio, ADAS 40-70 to CN, Female ([2]; serum level ratio, females, ADAS 40-70 vs CN): 0.612 | Ratio, 50-59 vs. 40-49, Female ([2]; serum level ratio, females, age 50-59 vs 40-49): 0.986 | Ratio, 60-69 vs. 40-49, Female ([2]; serum level ratio, females, age 60-69 vs 40-49): 0.872 | Ratio, 70+ vs. 40-49, Female ([2]; serum level ratio, females, age 70+ vs 40-49): 1.030 | Ratio, AD, All to CN, Female ([2]; serum level ratio, females, all AD vs cognitively normal): 0.688 | Ratio, Autopsy AD vs. Control, Female ([2]; serum level ratio, females, autopsy AD vs control): 0.635 | Ratio, 50-59 vs. 40-49, Male ([2]; serum level ratio, males, age 50-59 vs 40-49): 1.484 | Ratio, 60-69 vs. 40-49, Male ([2]; serum level ratio, males, age 60-69 vs 40-49): 1.540 | Ratio, 70+ vs. 40-49, Male ([2]; serum level ratio, males, age 70+ vs 40-49): 1.789 | Mean serum level, Age Ctl, 30-39, Female ([2]; serum, females, age 30-39): 0.107 | Mean serum level, Age Ctl, 40-49, Female ([2]; serum, females, age 40-49): 0.100 | Mean serum level, Age Ctl, 50-59, Female ([2]; serum, females, age 50-59): 0.099 | Mean serum level, Age Ctl, 60-69, Female ([2]; serum, females, age 60-69): 0.087 | Mean serum level, Age Ctl, 70+, Female ([2]; serum, females, age 70+): 0.103 | Mean serum level, Post Mortem SDAT, Female [2, 3]: 0.022 | Mean serum level, Post Mortem Ctl, Female [2, 4]: 0.035 | Mean serum level, Age Ctl, 30-39, Male ([2]; serum, males, age 30-39): 0.086 | Mean serum level, Age Ctl, 40-49, Male ([2]; serum, males, age 40-49): 0.063 | Mean serum level, Age Ctl, 50-59, Male ([2]; serum, males, age 50-59): 0.094 | Mean serum level, Age Ctl, 60-69, Male ([2]; serum, males, age 60-69): 0.098 | Mean serum level, Age Ctl, 70+, Male ([2]; serum, males, age 70+): 0.114
